Laboratory results as given in PubChem BioAssay AID330 (DTP/NCI, 2004).
The list is a part of this screen's results and no random one: it gathers tests that were run many times, whatever their T/C, doses with no T/C, and many T/C values between a quarter and a half above the control. Other doses and runs of a compound stand elsewhere. T/C gives the treated animals as a percentage of the vehicle group. Some entries give survivors of the animals treated and no T/C: the source files T/C as zero there, which appears to mark a toxic dose or a test without result, not a measured value. Some survivor counts are full or nearly so, which does not show that the dose was tolerated: survival well below the control is almost never listed, so the zero probably covers shortened survival too. Survivors were counted at the toxicity check, usually on the fifth day, unless a day is given; later deaths do not show. Schedule codes are those of the source, read here as Q, the interval in days (D) or hours (H), X, the number of doses. Some entries hold several experiments; their values stand side by side, smallest first. Marks such as (2×) give the number of equal values in this list. For survival time, the PubChem record calls one and a half times the control and up active, and a quarter to a half above the control has no call in these data; cut-offs in other NCI protocols can differ. Some T/C values carry the count of animals alive at the toxicity check (mostly the fifth day); without a count, all were alive then.

Tested on: P388 leukemia ip, CD2F1 mice, survival T/C
Test: NCI In Vivo Anticancer Drug Screen. Data for tumor model P388 Leukemia (intraperitoneal) in CD2F1 (CDF1) mice
Conditions: T/C endpoint: median survival time, higher T/C = longer survival
[1] = dose: 100.0 mg/kg/injection, schedule: Q01DX001 (ip), vehicle: Klucel (hydroxypropylcellulose) (HPC)
[2] = dose: 200.0 mg/kg/injection, schedule: Q01DX001 (ip), vehicle: Klucel (hydroxypropylcellulose) (HPC)
[3] = dose: 400.0 mg/kg/injection, schedule: Q01DX001 (ip), vehicle: Klucel (hydroxypropylcellulose) (HPC)

## CC(CN1CC(=O)NC(=O)C1)N1CC(=O)NC(=O)C1 (stereo not given)
dose: 75.0 mg/kg/injection, schedule: Q04DX003 (ip), vehicle: Klucel (hydroxypropylcellulose) (HPC)
  T/C: 104, 106, 111, 118 (2×), 122, 123 (2×), 124, 125 (4×), 126 (2×), 127 (2×), 128 (3×), 129 (3×), 131, 132 (2×), 133, 134, 137 (2×), 140, 141, 145, 149 % of control
[1]
  T/C: 96, 103 [5 of 6 alive], 107, 110, 111, 112 (5×), 113 (3×), 114 (2×), 115 (2×), 116 (2×), 119 (3×), 121 (2×), 123, 125, 127, 130 (2×), 131 % of control (2×)
  survivor count: 6 of 6
dose: 100.0 mg/kg/injection, schedule: Q01DX005 (ip), vehicle: Klucel (hydroxypropylcellulose) (HPC), evaluated on day 30
  T/C: 87, 90, 114, 119, 123, 148, 157 (2×), 164, 165, 166 (2×), 168, 169, 172, 173 [5 of 6 alive], 174 (3×), 176 (2×), 177 (2×), 179 (2×), 182 (2×), 183, 199, 201, 208 % of control
dose: 100.0 mg/kg/injection, schedule: Q01DX005 (ip), vehicle: Klucel (hydroxypropylcellulose) (HPC), evaluated on day 35
  T/C: 200 % of control
dose: 100.0 mg/kg/injection, schedule: Q01DX005 (ip), vehicle: Klucel (hydroxypropylcellulose) (HPC)
  survivor count: 3 of 3
dose: 100.0 mg/kg/injection, schedule: Q01DX009 (ip), vehicle: Klucel (hydroxypropylcellulose) (HPC), evaluated on day 30
  T/C: 86, 88, 90, 93, 94, 95, 100 (2×), 102, 104 (2×), 107, 112, 120, 121, 132, 133, 141, 180 [5 of 6 alive], 182, 186, 193, 196, 215, 220, 229, 238 % of control
dose: 100.0 mg/kg/injection, schedule: Q01DX009 (ip), vehicle: Klucel (hydroxypropylcellulose) (HPC), evaluated on day 35
  T/C: 93 % of control
dose: 100.0 mg/kg/injection, schedule: Q01DX009 (ip), vehicle: Klucel (hydroxypropylcellulose) (HPC)
  survivor count: 2 of 3, 5 of 6, 3 of 3 (2×), 6 of 6
dose: 100.0 mg/kg/injection, schedule: Q04DX002 (ip), vehicle: Klucel (hydroxypropylcellulose) (HPC)
  T/C: 127 and 137 % of control
dose: 108.0 mg/kg/injection, schedule: Q04DX002 (ip), vehicle: saline
  T/C: 140 % of control
dose: 108.0 mg/kg/injection, schedule: Q04DX003 (ip), vehicle: saline
  T/C: 132 and 133 % of control
dose: 130.0 mg/kg/injection, schedule: Q04DX002 (ip), vehicle: saline with Tween-80
  T/C: 134 % of control
dose: 150.0 mg/kg/injection, schedule: Q04DX002 (ip), vehicle: Klucel (hydroxypropylcellulose) (HPC), evaluated on day 30
  T/C: 108, 112, 117, 120, 122, 123, 124, 125, 126 (3×), 128, 130, 135 (2×), 136 (2×), 137 (2×), 140, 143, 144 (2×), 147, 152, 154, 155, 157, 159, 160, 175 % of control
dose: 150.0 mg/kg/injection, schedule: Q04DX002 (ip), vehicle: Klucel (hydroxypropylcellulose) (HPC), evaluated on day 35
  T/C: 119, 122, 131 % of control
dose: 150.0 mg/kg/injection, schedule: Q04DX002 (ip), vehicle: Klucel (hydroxypropylcellulose) (HPC)
  survivor count: 3 of 3 and 6 of 6
dose: 150.0 mg/kg/injection, schedule: Q04DX003 (ip), vehicle: Klucel (hydroxypropylcellulose) (HPC)
  T/C: 116, 117, 118, 123, 125, 126, 131, 133, 134, 135, 136 [5 of 6 alive], 137, 139, 142 (2×), 143, 144 (3×), 145 (2×), 146 (2×), 147, 149, 150, 151, 152, 156 (2×), 158, 163, 165, 171 % of control
[2]
  T/C: 108, 109, 110, 112, 118 (3×), 119, 120, 121 (2×), 122 (3×), 123 (2×), 125, 126 (2×), 127, 128 (2×), 130, 131, 134 (2×), 137 (2×), 140, 162, 172 % of control
  survivor count: 6 of 6
dose: 300.0 mg/kg/injection, schedule: Q04DX002 (ip), vehicle: Klucel (hydroxypropylcellulose) (HPC), evaluated on day 30
  T/C: 101, 115, 133 (2×), 135, 139, 147, 148, 152, 154, 162, 165 (2×), 166, 169, 176, 179, 181, 182 (2×), 188, 197, 200 (2×), 201 (2×), 203, 204, 206, 212, 223 % of control
dose: 300.0 mg/kg/injection, schedule: Q04DX002 (ip), vehicle: Klucel (hydroxypropylcellulose) (HPC), evaluated on day 35
  T/C: 139, 186, 203 % of control
dose: 300.0 mg/kg/injection, schedule: Q04DX002 (ip), vehicle: Klucel (hydroxypropylcellulose) (HPC)
  survivor count: 5 of 6 and 3 of 3
dose: 300.0 mg/kg/injection, schedule: Q04DX003 (ip), vehicle: Klucel (hydroxypropylcellulose) (HPC)
  T/C: 110, 128, 131, 140, 144 [5 of 6 alive], 145 [4 of 6 alive], 154, 155, 158 (2×), 159, 163 (2×), 174, 181, 182 (2×), 186, 192, 194, 195 (3×), 205, 209 (2×), 213, 215, 216, 226 (2×), 229, 240, 254 % of control
[3]
  T/C: 96, 105 [2 of 3 alive], 110, 112 (2×), 126, 131, 132, 137 (3×), 138, 140, 142, 145, 150 (2×), 153, 155, 156, 156 [4 of 6 alive], 156 [5 of 6 alive], 160 (2×), 162, 175, 177, 190 % of control (2×)
  survivor count: 5 of 6, 3 of 3, 6 of 6
